The data set in a line: general procedure: Fmoc solid-phase peptide synthesis; Rink Amide AM resin LL (Novabiochem). As to conditions: whole synthesis, TFA salt.

Some peptides are written in HELM: one residue between dots, names in brackets for other building blocks, links after the first $.

These results are taken from PMC11352961 (RSC Chemical Biology, 2024).

Take “PEPTIDE1{[dR].[dL].[dK].[dR].[dL].[dK].[dL].[dL].[dK].[dK].[am]}|PEPTIDE2{[dR].[dL].[dK].[dR].[dL].[dK].[dL].[dL]}|PEPTIDE3{[dR].[dL].[dK].[dR].[dL]}|PEPTIDE4{[dR].[dL].[dK].[dR].[dL]}|PEPTIDE5{[dR].[dL]}|PEPTIDE6{[dR].[dL]}|PEPTIDE7{[dR].[dL]}|PEPTIDE8{[dR].[dL]}|CHEM1{[C18]}$PEPTIDE1,PEPTIDE2,9:R3-8:R2|PEPTIDE1,PEPTIDE3,6:R3-5:R2|PEPTIDE2,PEPTIDE4,6:R3-5:R2|PEPTIDE1,PEPTIDE5,3:R3-2:R2|PEPTIDE2,PEPTIDE6,3:R3-2:R2|PEPTIDE3,PEPTIDE7,3:R3-2:R2|PEPTIDE4,PEPTIDE8,3:R3-2:R2|PEPTIDE1,CHEM1,10:R3-1:R2$$$V2.0”: the isolated yield came out at 4.3%. Next, “PEPTIDE1{[dK].[dL].[dK].[dK].[dL].[dK].[dL].[dL].[dK].[D-Lys(C18)].[am]}|PEPTIDE2{[dK].[dL].[dK].[dK].[dL].[dK].[dL].[dL]}|PEPTIDE3{[dK].[dL].[dK].[dK].[dL]}|PEPTIDE4{[dK].[dL].[dK].[dK].[dL]}|PEPTIDE5{[dK].[dL]}|PEPTIDE6{[dK].[dL]}|PEPTIDE7{[dK].[dL]}|PEPTIDE8{[dK].[dL]}$PEPTIDE1,PEPTIDE2,9:R3-8:R2|PEPTIDE1,PEPTIDE3,6:R3-5:R2|PEPTIDE2,PEPTIDE4,6:R3-5:R2|PEPTIDE1,PEPTIDE5,3:R3-2:R2|PEPTIDE2,PEPTIDE6,3:R3-2:R2|PEPTIDE3,PEPTIDE7,3:R3-2:R2|PEPTIDE4,PEPTIDE8,3:R3-2:R2$$$V2.0”: 5.3%.
